Data taken from publication PMC8436934.

Biological target: Neuronal PAS Domain Protein 2 (NPAS2) (rat (endogenous in rat myocardial tissue and H9c2))
Assay: co-IP; extracts of rat myocardial tissue and of H9c2 cells; immunoprecipitation with anti-NPAS2 or anti-Cry2 antibody, Western blot for Cry2 or NPAS2

B1: Cryptochrome circadian regulator 2 (Cry2) (protein, UniProt Q923I8 1-594)
chain: MAAAAVVAATVPVQSMGADGASSVHWFRKGLRLHDNPALLAAVRGARCVRCVYILDPWFAASSSVGINRWRFLLQSLEDLDTSLRKLNSRLFVVRGQPADVFPRLFKEWGVTRLTFEYDSEPFGKERDAAIMKMAKEAGVEVVTENSHTLYDLDRIIELNGQKPPLTYKRFQALISRMELPKKPVGAVSSQHMENCRAEIQENHDDTYGVPSLEELGFPTEGLGPAVWQGGETEALVRLDKHLERKAWVANYERPRMNANSLLASPTGLSPYLRFGCLSCRLFYYRLWDLYRKVKRNSTPPLSLFGQLLWREFFYTAATNNPRFDRMEGNPICIQIPWDRNPEALAKWAEGKTGFPWIDAIMTQLRQEGWIHHLARHAVACFLTRGDLWVSWESGVRVFDELLLDADFSVNAGSWMWLSCSAFFQQFFHCYCPVGFGRRTDPSGDYIRRYLPKLKGFPSRYIYEPWNAPESVQKAANCIIGVDYPRPIVNHAETSRLNIERMKQIYQQLSRYRGLCLWASVPSCVEDLSHPVAEPGSSQAGSISNTGPRPLSSGPASPKRKLEAAEEPPGEELSKRARVTVTQMPAQEPPSKDS
In the case of B1, the binding is reported as “binds”.

These are yes or no findings as the source states them, for the method shown. In cells and extracts the contact can be indirect. Binding can be weak; no strength is given.
